Measured values from PubChem BioAssay (NCATS).
The shares of active, inactive and inconclusive entries below differ from those in the screen. Where the call is inconclusive, the potency comes from a doubtful curve fit. Active and inactive are the calls of the source. The call rests on the fitted dose curve; in most records, active means well fitted inhibition curve with a large enough effect; inconclusive means small, poorly fitted or top-dose-only effect, or effect the other way; inactive means no such curve, though single readings can be large or run the other way.

Assay: qHTS Assay for Inhibitors of Fructose-1,6-bisphosphate Aldolase from Giardia Lamblia: Giardia lamblia growth inhibition (AID 2785); further: nearly all actives have a fitted effect of over 70% in size
Conditions: Giardia lamblia trophozoite growth inhibition; activity change, negative = inhibition: at 57.5 µM (top of the series)
How it was run: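 Whole-parasite growth test: Giardia WB trophozoites in TYI-S-33 (pH 7.0), 100 per well, incubated 48 h at 37C with compound. ATP content was read by ATPlite luminescence.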
On the % scale 0 is the no-effect control and ±100 the full control effect; potency means the concentration at half of the fitted maximal effect.

Structure (SMILES)	Potency	activity change, negative = inhibition
C=CCNC(=S)NNc1nc2sc3c(c2c(=O)[nH]1)CC(C)(C)OC3	inconclusive: 31.6 µM [inhibitor, partial curve, poor fit]	–
CCC1Oc2ccccc2N(CC(=O)NCCN2CCc3ccccc3C2)C1=O (stereo not given)	–	inactive: -21.8%
O=C(Nc1ccccc1Cl)O/N=C(/c1ccccc1)c1ccccn1	active: 22.4 µM	–
O=C(NC(=S)NNC(=O)c1ccccc1O)c1ccccc1	inconclusive: 28.3 µM [inhibitor, single point]	–
COCCCn1c(=O)c2ccccc2n2c(=S)[nH]nc12	–	inactive: -21% [at 38.3 µM]
COc1cc(CN2CCN(Cc3ccco3)CC2)cc(OC)c1	–	inconclusive: 51.6% [activator]
CCOC(=O)c1ccc(N=Nc2c(C)[nH]n(-c3ccccc3)c2=O)cc1	inconclusive: 6.31 µM [inhibitor, partial curve, poor fit]	–
Cc1ccc(C2/C(=C(/O)c3ccc(Br)cc3)C(=O)C(=O)N2Cc2ccco2)o1 (stereo not given)	inconclusive: 63.1 µM [inhibitor, partial curve, poor fit]	–
O=C(Nc1nnc(C2=COCCO2)o1)c1ccc(Cc2ccccc2)cc1	inconclusive: 35.5 µM [inhibitor, single point]	–
COc1cc(-c2nc(S(=O)(=O)c3ccc(C)cc3)c(N3CCOCC3)o2)cc(OC)c1OC	–	inconclusive: -34.4% [inhibitor]
CCNc1nc(C(=O)O)nc(N2CCOCC2)n1	–	inactive: 18.1% [at 10.4 µM]
Cc1ccc(NC(=O)CN2CCN(C)CC2)cc1Br	inconclusive: 12.6 µM [inhibitor, partial curve, poor fit]	–
CCOC(=O)c1c(-c2ccccc2)csc1NC(=O)C(C)NCCCN1CCOCC1 (stereo not given)	active: 4.47 µM	–
Clc1ccccc1CN1CCN(CCCc2ccccc2)CC1	–	inactive: -46.8%
O=[N+]([O-])c1ccccc1S(=O)(=O)N1CCN(Cc2ccsc2)CC1	–	inactive: -17.3%
Cc1ccccc1/C=N/Nc1nc2ccccc2c(=O)n1O	inconclusive: 20 µM [inhibitor, partial curve, poor fit]	–
CCCc1cc(=O)n2[nH]c(NC(=O)c3ccco3)nc2n1	inconclusive: 31.6 µM [inhibitor, partial curve, poor fit]	–
N#Cc1ccc(Cl)cc1NC(=O)CNCc1cccs1	inconclusive: 5.62 µM [inhibitor, partial curve, poor fit]	–
O=C(NC(=S)N1CCCCC1)c1csc([N+](=O)[O-])c1	active: 1 µM	–
CSc1ccc(-c2sc(Nc3ccccc3)n[n+]2-c2ccccc2)cc1	–	inactive: -28.3%

Laid out differently: entries from further up
CCOC(=O)c1ccc(N=Nc2c(C)[nH]n(-c3ccccc3)c2=O)cc1
  Potency: inconclusive: 6.31 µM [inhibitor, partial curve, poor fit]
Cc1ccc(C2/C(=C(/O)c3ccc(Br)cc3)C(=O)C(=O)N2Cc2ccco2)o1 (stereo not given)
  Potency: inconclusive: 63.1 µM [inhibitor, partial curve, poor fit]

More compounds follow.

Structure (SMILES)	Potency	activity change, negative = inhibition
CC(=O)c1cccc(NC(=S)N2CCc3ccccc32)c1	–	inactive: 27%
O=C(NC(=S)Nc1ccccc1Br)c1cccnc1	inconclusive: 39.8 µM [inhibitor, single point]	–
NS(=O)(=O)c1ccc(NC(=S)NC(=O)c2cccs2)cc1	–	inconclusive: 88.7% [activator]
CN(C)CCn1c(NCc2ccc3c(c2)OCO3)nc2ccccc21	inconclusive: 7.08 µM [inhibitor, partial curve, poor fit]	–
COc1cccc(CN(C)CC(=O)Nc2cccc3ccccc23)c1	–	inactive: 2.45% [at 10.4 µM]
COc1cc(Cl)c(C)cc1NC(=S)NN	inconclusive: 89.1 µM [inhibitor, single point]	–
CCOC(=O)c1c(NC(=O)CC)sc2c1CCN(Cc1ccccc1)C2	inconclusive: 7.08 µM [inhibitor, partial curve, poor fit]	–
NC(=O)C1CCN(CC(=O)Nc2nccs2)CC1	inconclusive: 6.31 µM [inhibitor, single point]	–
COc1ccc(OCc2nn[nH]n2)cc1	–	inconclusive: 52.7% [activator]
C=CCn1c(-c2ccoc2)n[nH]c1=S	inconclusive: 200 µM [inhibitor, partial curve, poor fit]	–
O=C(NNc1cccc(Cl)n1)C(F)(F)F	inconclusive: 126 µM [inhibitor, partial curve]	–
C=C1CCC[C@]2(C)C[C@H]3OC(=O)C(CNCCN(CC)CC)[C@H]3CC12 (stereo not given in full)	inconclusive: 44.7 µM [inhibitor, partial curve, poor fit]	–
CSc1n[nH]c(=S)n1N	–	inactive: 10.6%
COc1cc(C(=O)NC(=S)N2CCCCCC2)cc(OC)c1OC	inconclusive: 17.8 µM [inhibitor, partial curve, poor fit]	–
O=C(C1CCCN(Cc2ccccc2[N+](=O)[O-])C1)N1CCCC1 (stereo not given)	inconclusive: 8.91 µM [inhibitor, single point]	–
CCN(CC)c1ccc(N)cc1S(=O)(=O)Nc1ccccc1OC	–	inactive: 12.7% [at 10.4 µM]
NS(=O)(=O)c1ccc(NC(=S)N2CCC(O)CC2)cc1	inconclusive: 3.98 µM [inhibitor, single point]	–
CCCCN1CCc2[nH]c(=S)[nH]c(=O)c2C1	–	inconclusive: 34.6% [activator]
Cc1ccc(S(=O)(=O)NNC(=S)NC(C)(C)C)cc1	inconclusive: 126 µM [inhibitor, single point]	–
Cc1ccc(S(=O)(=O)N2CCN(CCc3ccccc3)CC2)c(C)c1	–	inactive: -3.04%
